The target in this test is histidine-tagged wild-type FliX (C. crescentus). As to the kind of experiment: affinity purification with mass spectrometry; FliX-His coupled to CNBr-activated sepharose 4B beads; incubated overnight at 4°C with LS107 cell extract in PBS (0.1 M sodium phosphate, 0.15 M NaCl, pH 7.2); washed with PBS; bands of a Coomassie-stained SDS-PAGE gel identified by ESI-ion trap mass spectrometry; bead complexes also washed with phosphate buffer containing 0.3 to 2.65 M NaCl; only the target purified.

Amino acid sequences for entries named in this document (tags omitted).
UniProt P20442: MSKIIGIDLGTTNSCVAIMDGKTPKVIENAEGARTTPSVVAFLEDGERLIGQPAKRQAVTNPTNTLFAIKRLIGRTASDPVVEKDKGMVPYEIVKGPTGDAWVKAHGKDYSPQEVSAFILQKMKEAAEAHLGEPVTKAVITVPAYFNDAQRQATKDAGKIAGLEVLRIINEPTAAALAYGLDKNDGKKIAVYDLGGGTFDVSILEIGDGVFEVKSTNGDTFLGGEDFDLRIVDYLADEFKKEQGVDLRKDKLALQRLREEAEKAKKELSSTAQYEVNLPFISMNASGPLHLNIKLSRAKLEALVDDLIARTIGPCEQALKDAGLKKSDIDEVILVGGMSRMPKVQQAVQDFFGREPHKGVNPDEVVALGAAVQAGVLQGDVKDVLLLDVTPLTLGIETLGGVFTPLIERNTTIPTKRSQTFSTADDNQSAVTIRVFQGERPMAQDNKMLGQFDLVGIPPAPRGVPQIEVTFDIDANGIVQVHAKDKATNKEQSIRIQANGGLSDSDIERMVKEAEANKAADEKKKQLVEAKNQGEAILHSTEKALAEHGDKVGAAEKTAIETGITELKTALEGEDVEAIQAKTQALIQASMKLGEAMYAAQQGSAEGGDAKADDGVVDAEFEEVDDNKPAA
UniProt Q99QM0: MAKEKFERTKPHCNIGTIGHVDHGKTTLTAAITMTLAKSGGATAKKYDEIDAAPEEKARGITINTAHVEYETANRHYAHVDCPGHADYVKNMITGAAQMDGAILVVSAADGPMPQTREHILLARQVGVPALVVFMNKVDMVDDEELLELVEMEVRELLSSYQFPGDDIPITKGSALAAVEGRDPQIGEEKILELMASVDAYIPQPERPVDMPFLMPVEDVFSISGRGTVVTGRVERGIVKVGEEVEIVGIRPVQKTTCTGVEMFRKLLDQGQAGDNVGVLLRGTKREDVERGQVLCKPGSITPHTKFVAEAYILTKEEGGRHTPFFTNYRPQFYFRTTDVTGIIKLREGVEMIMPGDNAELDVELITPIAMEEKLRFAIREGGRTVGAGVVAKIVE

Results are given in words; binding and its absence hold for the method and conditions named. In cells and extracts the contact can be indirect. A yes stands for co-enrichment or nearness to the bait. Other partners may have been found. No binding means not detected with the bait.

For “heat shock protein DnaK (from UniProt P20442 1-631)”, the binding result is “no binding”.
For “elongation factor EF-Tu (from UniProt Q99QM0 1-396)”, the binding entry is recorded as “no binding”.

Values taken from publication PMC3096577.
